Measured data: PubChem BioAssay AID1259308 (NCATS, 2017)
The whole screen tested about 59,000 reagents; below is a part drawn at random. Of all reagents, about 1,510 (2.6%) were called active. 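Calls use total luciferase alone and ignore viability, so some active siRNAs may act by altering cell number.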 Not all columns of the deposit are shown. No sequences are given here.

Screen: 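Knock-downs that increase output of a recombinant reporter protein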 (primary screen)
System: human HEK293 embryonic kidney cells stably expressing firefly luciferase (HEK-CMV-Luc2-Hygro)
Reagents: single siRNA against human genes, 0.8 pmol siRNA per well
Duration: 72 h
Measurement: 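Reporter luminescence and viable-cell signal on separate replicate plates, given as percent of non-targeting control and median/MAD z-scores, plus per-cell luciferase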
Reading the numbers: total luciferase, z-score: higher = more reporter protein produced
Active means: 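An siRNA counts as active if its total luciferase robust z-score exceeds 3; genes with two or more such siRNAs out of three were retested with fresh siRNAs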
Meaning of the calls: active = raised luciferase; inactive = no rise

total luciferase, z-score, by gene knocked down and reagent
LRRN1 (GeneID 57633): SID160746458 -0.963 inactive; SID160746459 -0.224 inactive; SID160746460 0.162 inactive
SMPX (GeneID 23676): SID160732776 0.866 inactive; SID160736793 0.319 inactive; SID160736794 0.992 inactive
ABCF2 (GeneID 10061): SID160724764 -0.721 inactive; SID160724773 -0.225 inactive; SID160724781 -1.1 inactive
BCHE (GeneID 590): SID160723249 -0.405 inactive; SID160723259 1.23 inactive; SID160723270 -0.452 inactive
NPR2 (GeneID 4882): SID160778207 -2.58 inactive; SID160778208 0.633 inactive; SID160778209 -0.119 inactive
OR6C75 (GeneID 390323): SID160766484 2.08 inactive; SID160766485 -0.337 inactive; SID160766486 -0.686 inactive
STARD3NL (GeneID 83930): SID160735065 -1.86 inactive; SID160751540 -0.614 inactive; SID160751541 -1.03 inactive

Laid out differently: 6 of the entries above.
{"gene knocked down":"ABCF2 (GeneID 10061)","PubChem SID":"SID160724764","total luciferase, z-score":-0.721,"call":"inactive"}
{"gene knocked down":"ABCF2 (GeneID 10061)","PubChem SID":"SID160724773","total luciferase, z-score":-0.225,"call":"inactive"}
{"gene knocked down":"ABCF2 (GeneID 10061)","PubChem SID":"SID160724781","total luciferase, z-score":-1.1,"call":"inactive"}
{"gene knocked down":"BCHE (GeneID 590)","PubChem SID":"SID160723249","total luciferase, z-score":-0.405,"call":"inactive"}
{"gene knocked down":"BCHE (GeneID 590)","PubChem SID":"SID160723259","total luciferase, z-score":1.23,"call":"inactive"}
{"gene knocked down":"BCHE (GeneID 590)","PubChem SID":"SID160723270","total luciferase, z-score":-0.452,"call":"inactive"}

Next reagents follow:
total luciferase, z-score, by gene knocked down and reagent
DPEP1 (GeneID 1800): SID160755882 -0.465 inactive; SID160755893 -1.01 inactive; SID160755903 3.19 active
CYB5D2 (GeneID 124936): SID160756276 0.695 inactive; SID160756277 -1.81 inactive; SID160756278 1.45 inactive
UBTD1 (GeneID 80019): SID160749972 -1.96 inactive; SID160749973 -1.05 inactive; SID160749974 0.191 inactive
BAMBI (GeneID 25805): SID160737016 0.103 inactive; SID160737017 -0.183 inactive; SID160737018 -0.1 inactive
TTLL5 (GeneID 23093): SID160730826 0.466 inactive; SID160735432 1.09 inactive; SID160735433 3.09 active
ZNF93 (GeneID 81931): SID160751078 -0.309 inactive; SID160751079 0.736 inactive; SID160751080 0.887 inactive
BRDT (GeneID 676): SID160728878 0.979 inactive; SID160728889 -2.04 inactive; SID160728900 0.597 inactive
SND1 (GeneID 27044): SID160738300 0.23 inactive; SID160738301 0.611 inactive; SID160738302 -0.957 inactive
MTX2 (GeneID 10651): SID160728958 -0.784 inactive; SID160728959 0.375 inactive; SID160728960 -0.0858 inactive
RMP24 (GeneID 83608): SID160751248 -0.437 inactive; SID160751249 -0.194 inactive; SID160751250 -1.64 inactive
HOMER2 (GeneID 9455): SID160722254 0.0283 inactive; SID160722255 -0.516 inactive; SID160722256 -1.56 inactive
RHD (GeneID 6007): SID160715893 -0.243 inactive; SID160715894 -0.471 inactive; SID160731660 -1.38 inactive
